The target of the experiment is hemagglutinin (HA)-tagged form of dCRY (Drosophila melanogaster) (UniProt O77059). In words: co-IP; head extracts of HACRY-overexpressing flies, anti-HA co-immunoprecipitation, Western blot with anti-BELLE and anti-HA; flies collected at ZT24 in the dark and after a 15-min light pulse; tim-GAL4 flies as control.

Amino acid sequences for entries named in this document (tags omitted).
UniProt O77059: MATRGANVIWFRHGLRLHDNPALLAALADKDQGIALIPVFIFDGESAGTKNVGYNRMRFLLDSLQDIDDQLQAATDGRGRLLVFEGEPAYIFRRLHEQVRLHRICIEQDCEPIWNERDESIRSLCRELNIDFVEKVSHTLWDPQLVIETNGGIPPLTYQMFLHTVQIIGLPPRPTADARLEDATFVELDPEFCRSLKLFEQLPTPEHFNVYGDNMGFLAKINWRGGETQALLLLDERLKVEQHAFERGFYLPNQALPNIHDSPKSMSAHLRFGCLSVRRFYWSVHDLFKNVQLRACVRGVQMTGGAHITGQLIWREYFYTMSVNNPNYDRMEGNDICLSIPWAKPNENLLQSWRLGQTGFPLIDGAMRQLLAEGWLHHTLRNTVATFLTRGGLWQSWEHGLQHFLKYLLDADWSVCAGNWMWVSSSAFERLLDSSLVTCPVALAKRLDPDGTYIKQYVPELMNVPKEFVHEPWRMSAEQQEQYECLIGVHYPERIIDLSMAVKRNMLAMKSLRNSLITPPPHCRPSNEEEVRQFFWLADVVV
UniProt Q9VHP0: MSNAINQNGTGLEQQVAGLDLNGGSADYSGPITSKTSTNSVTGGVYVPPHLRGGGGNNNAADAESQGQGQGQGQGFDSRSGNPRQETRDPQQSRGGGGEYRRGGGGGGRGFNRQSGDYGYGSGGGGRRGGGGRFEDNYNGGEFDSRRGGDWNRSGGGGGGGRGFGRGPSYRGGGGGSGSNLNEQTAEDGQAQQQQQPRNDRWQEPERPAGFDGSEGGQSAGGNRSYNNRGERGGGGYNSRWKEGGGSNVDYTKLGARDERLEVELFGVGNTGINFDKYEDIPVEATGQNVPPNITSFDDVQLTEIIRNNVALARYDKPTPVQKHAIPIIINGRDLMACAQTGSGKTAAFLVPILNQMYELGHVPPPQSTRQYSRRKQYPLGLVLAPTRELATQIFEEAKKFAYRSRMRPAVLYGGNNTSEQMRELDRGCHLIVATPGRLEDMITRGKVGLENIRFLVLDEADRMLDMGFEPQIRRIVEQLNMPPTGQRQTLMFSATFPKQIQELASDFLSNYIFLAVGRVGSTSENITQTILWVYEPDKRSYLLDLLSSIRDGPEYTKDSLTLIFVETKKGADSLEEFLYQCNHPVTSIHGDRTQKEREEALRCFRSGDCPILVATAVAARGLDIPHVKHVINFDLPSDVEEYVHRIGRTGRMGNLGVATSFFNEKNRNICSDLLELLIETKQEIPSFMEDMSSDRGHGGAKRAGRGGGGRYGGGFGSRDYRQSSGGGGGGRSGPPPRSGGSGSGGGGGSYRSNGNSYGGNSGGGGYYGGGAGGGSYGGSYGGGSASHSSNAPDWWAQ

No constants are given. Whether binding was seen depends on the method and setting. Binding seen in cells or lysates may run through a third protein. Some binding calls cover weakened binding; strength is not graded here.

For the substance “BELLE, DEAD box RNA helicase (from UniProt Q9VHP0 1-798)”, the binding result was “binds”.
